Measurements as given in paper PMC9883498.
No constants are given. Whether binding was seen depends on the method and setting. In cells and extracts the contact can be indirect. Some binding calls cover weakened binding; strength is not graded here.

Chains of the proteins cited; added tags and fusions are not shown.
UniProt Q15717: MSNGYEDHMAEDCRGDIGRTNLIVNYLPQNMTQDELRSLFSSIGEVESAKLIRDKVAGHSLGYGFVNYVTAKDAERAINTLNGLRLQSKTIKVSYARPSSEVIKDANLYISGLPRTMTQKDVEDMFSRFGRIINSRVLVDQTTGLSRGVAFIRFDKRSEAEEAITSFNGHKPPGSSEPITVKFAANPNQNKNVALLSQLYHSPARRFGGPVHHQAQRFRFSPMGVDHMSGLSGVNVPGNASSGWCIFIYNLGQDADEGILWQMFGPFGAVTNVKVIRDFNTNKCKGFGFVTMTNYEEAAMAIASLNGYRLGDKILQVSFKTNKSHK
UniProt P51149: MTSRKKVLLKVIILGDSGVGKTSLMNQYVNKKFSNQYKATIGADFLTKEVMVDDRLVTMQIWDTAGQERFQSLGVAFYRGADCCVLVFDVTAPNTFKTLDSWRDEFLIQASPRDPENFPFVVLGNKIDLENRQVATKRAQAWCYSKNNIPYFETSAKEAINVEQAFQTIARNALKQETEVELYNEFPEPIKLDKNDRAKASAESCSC

How the values were obtained:
[1] = biological target: HuR (human (endogenous in MCF7)) (UniProt Q15717); assay: co-IP; HuR antibody (normal IgG as control), immunoprecipitation from cell supernatant (extracellular medium); cells unexposed or exposed to UVC, collected 2 h post exposure; immunoblot of immunoprecipitates
[2] = biological target: HuR (human (endogenous in MCF7)) (UniProt Q15717); assay: co-IP; HuR antibody (normal IgG as control) on protein G sepharose beads, cell lysate in NT2 buffer, 4 °C overnight; cells unexposed or exposed to UVC (10 J/m^2), collected 2 h post exposure; immunoblot of immunoprecipitates

Row | Molecule | binding [1] | binding [2]
1 | Rab7 (from UniProt P51149 1-207) | binds | binds
2 | flotillin 1 (protein, UniProt O75955 1-427) MFFTCGPNEAMVVSGFCRSPPVMVAGGRVFVLPCIQQIQRISLNTLTLNVKSEKVYTRHGVPISVTGIAQVKIQGQNKEMLAAACQMFLGKTEAEIAHIALETLEGHQRAIMAHMTVEEIYKDRQKFSEQVFKVASSDLVNMGISVVSYTLKDIHDDQDYLHSLGKARTAQVQKDARIGEAEAKRDAGIREAKAKQEKVSAQYLSEIEMAKAQRDYELKKAAYDIEVNTRRAQADLAYQLQVAKTKQQIEEQRVQVQVVERAQQVAVQEQEIARREKELEARVRKPAEAERYKLERLAEAEKSQLIMQAEAEAASVRMRGEAEAFAIGARARAEAEQMAKKAEAFQLYQEAAQLDMLLEKLPQVAEEISGPLTSANKITLVSSGSGTMGAAKVTGEVLDILTRLPESVERLTGVSISQVNHKPLRTA | binds | binds
